Results are given in words; binding and its absence hold for the method and conditions named. In cells and extracts the contact can be indirect. These calls come from enrichment with a bait or labelling near it, and not all partners need be listed.

Protein sequences, listed by entry. Tags and fused reporters are not part of them. Lines headed by an entry give the natural chain unless they say otherwise; changes in a name come on top.
UniProt A0QQ65: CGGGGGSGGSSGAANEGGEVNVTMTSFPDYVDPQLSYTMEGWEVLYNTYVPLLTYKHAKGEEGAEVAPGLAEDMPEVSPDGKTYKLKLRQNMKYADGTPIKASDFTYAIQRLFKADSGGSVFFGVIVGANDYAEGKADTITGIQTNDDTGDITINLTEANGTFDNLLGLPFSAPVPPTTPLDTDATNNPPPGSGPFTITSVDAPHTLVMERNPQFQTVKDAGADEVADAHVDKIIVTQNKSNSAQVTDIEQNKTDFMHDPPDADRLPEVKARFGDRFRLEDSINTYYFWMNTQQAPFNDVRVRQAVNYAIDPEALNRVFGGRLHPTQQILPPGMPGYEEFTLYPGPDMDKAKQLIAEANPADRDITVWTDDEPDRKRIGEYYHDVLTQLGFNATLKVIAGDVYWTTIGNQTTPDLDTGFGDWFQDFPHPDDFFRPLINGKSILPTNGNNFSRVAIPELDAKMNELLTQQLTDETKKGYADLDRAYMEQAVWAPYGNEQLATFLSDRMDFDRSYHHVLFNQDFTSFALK
UniProt A0QR99: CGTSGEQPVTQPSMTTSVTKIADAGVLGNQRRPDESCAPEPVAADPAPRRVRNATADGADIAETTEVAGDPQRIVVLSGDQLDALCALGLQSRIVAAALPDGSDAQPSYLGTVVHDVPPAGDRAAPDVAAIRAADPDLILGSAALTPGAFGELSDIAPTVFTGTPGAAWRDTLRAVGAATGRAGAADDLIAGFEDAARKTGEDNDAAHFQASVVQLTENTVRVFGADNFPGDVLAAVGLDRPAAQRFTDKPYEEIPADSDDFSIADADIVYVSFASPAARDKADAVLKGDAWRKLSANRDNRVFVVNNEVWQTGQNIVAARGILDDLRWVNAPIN

The target of the experiment is Msm FecB2-FLAG (MSMEG_0438, closest M. smegmatis homolog of Mtb FecB2 Rv0265c) (M. smegmatis) (UniProt A0QPL3). The experiment can be described thus: affinity purification with mass spectrometry; M. smegmatis lysate (50 mM Tris-HCl pH 7.4, 350 mM NaCl, 10% glycerol, 1% n-dodecyl-β-D-maltoside) of cells expressing the FLAG-tagged bait; ANTI-FLAG M2 affinity gel overnight at 4°C; LC-MS/MS; hits not seen in the FLAG-only control; FecB-, MmpS4- and MmpS5-FLAG cells grown iron-depleted then with 20 μM ferric ammonium citrate, FecB2-FLAG cells under normal iron conditions.
For the substance “Msm OppA (MSMEG_0643), endogenous (from UniProt A0QQ65)”, the binding result was “binds”.
As to “Msm OppD-1 (MSMEG_0640), endogenous (from UniProt A0QQ62)”, the binding result is given as “binds”.
For “Msm OppD-2 (MSMEG_0639), endogenous (from UniProt A0QQ61)” the value was “binds”; for “Msm-FecB (MSMEG_1039/2319), endogenous (from UniProt A0QR99)”, “binds”.

For the origin of these results see paper PMC10553834, “Differentiating the roles of Mycobacterium tuberculosis substrate binding proteins, FecB and FecB2, in iron uptake” (PLOS Pathogens, 2023).
